Assay in all cases: LacI/LacO tethering and co-recruitment in cells
Assay [1] has as its target CAL1-GFP-LacI (Drosophila) (UniProt Q9VEN2).
In assay [2] the target is dCENP-A-GFP-LacI (Drosophila) (UniProt Q9V6Q2).
Assay [3] deals with T1, GFP-LacI-dCENP-C (Drosophila) (UniProt Q9VHP9).
T1 sequence: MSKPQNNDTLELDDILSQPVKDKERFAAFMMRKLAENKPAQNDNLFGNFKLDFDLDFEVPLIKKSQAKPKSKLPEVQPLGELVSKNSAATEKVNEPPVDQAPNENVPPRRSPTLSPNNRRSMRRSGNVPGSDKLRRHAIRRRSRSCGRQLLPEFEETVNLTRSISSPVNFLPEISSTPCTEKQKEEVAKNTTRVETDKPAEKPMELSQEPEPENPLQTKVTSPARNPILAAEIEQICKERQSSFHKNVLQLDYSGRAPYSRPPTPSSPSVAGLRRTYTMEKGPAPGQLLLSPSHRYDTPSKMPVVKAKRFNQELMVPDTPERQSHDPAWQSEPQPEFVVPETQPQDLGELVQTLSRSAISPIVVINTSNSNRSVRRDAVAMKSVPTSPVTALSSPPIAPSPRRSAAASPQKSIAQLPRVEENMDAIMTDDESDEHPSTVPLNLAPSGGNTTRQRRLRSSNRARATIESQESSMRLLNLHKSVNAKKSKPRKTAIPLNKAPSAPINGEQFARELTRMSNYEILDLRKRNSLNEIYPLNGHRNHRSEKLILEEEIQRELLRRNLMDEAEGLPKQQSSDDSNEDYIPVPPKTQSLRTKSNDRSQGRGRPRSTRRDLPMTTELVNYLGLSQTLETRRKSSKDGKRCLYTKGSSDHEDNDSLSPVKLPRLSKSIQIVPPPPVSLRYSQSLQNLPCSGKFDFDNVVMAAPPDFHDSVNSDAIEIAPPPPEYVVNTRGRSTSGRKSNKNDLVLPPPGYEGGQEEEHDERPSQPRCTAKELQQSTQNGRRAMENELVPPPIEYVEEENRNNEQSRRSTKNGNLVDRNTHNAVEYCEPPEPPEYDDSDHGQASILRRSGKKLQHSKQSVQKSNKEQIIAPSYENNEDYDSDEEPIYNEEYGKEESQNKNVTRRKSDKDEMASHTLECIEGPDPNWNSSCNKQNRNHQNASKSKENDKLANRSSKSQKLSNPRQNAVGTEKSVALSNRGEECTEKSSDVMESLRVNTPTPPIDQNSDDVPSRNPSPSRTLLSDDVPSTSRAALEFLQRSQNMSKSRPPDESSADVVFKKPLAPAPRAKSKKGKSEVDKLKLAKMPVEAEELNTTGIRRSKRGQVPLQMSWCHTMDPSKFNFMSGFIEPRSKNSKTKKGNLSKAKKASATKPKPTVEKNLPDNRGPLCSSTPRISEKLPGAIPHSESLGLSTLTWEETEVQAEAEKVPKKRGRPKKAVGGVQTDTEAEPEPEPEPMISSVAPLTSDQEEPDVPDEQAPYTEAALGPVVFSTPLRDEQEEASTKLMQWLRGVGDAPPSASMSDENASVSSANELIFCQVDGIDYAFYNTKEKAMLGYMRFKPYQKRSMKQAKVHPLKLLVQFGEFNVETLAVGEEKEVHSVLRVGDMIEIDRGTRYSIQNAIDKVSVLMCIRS

Chains of the proteins cited; added tags and fusions are not shown. Lines headed by an entry give the natural chain unless they say otherwise; changes in a name come on top.
UniProt Q9V6Q2, whole entry: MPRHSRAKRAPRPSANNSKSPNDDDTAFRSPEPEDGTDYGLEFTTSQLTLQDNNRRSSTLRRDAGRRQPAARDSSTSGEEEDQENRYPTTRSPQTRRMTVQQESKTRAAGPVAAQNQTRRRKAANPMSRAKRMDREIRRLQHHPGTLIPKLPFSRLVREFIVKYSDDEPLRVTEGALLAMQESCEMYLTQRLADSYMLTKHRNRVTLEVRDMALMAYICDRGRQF

Assay [4] deals with T2, GFP-LacI-dCENP-C(1009-1411) (Drosophila) (UniProt Q9VHP9).
T2 sequence: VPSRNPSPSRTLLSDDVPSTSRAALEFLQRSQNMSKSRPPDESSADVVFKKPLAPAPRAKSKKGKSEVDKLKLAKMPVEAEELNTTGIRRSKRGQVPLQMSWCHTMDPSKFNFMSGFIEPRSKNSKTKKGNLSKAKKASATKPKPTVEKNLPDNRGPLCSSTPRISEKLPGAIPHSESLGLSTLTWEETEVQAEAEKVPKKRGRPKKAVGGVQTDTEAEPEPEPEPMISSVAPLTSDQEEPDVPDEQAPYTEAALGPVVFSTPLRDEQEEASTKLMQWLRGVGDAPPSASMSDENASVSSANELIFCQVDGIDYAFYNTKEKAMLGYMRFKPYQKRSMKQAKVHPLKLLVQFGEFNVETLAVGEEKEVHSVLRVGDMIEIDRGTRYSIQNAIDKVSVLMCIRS

The target in assay [5] is T1, GFP-LacI-dCENP-C (Drosophila). This is another data set of the same source.
In assay [6] the target is CAL1-GFP-LacI (Drosophila) (UniProt Q9VEN2). This is another data set of the same source.

Eleven molecules from paper doi:10.1101/560391 (bioRxiv, 2019) can be followed below.

Residue numbers refer to the chain shown, from its start. Names and notes keep the numbering of the source. Read-outs that look alike come from different tables or passages of the source. No constants are given. Whether binding was seen depends on the method and setting. Some results given as binding are weak or reduced against the parent protein; the word gives no strength. For some of these results: Sequences can lack the tags named with a protein.

As for “CAL1(392-722)-HA (from UniProt Q9VEN2 392-722) (domain or fragment)”, the binding result in assay [1] was “no binding”.

Turning to dCENP-A-V5 (from UniProt Q9V6Q2 1-225), in assay [1], the binding result is reported as “binds”.

As to “CAL1(101-407)-HA (from UniProt Q9VEN2 101-407) (domain or fragment)”, the binding result in assay [1] is listed as “binds”.

Regarding “CAL1(1-407)-HA (from UniProt Q9VEN2 1-407) (domain or fragment)”, the binding result in assay [1] is reported as “binds”.

In the case of “CAL1(1-160)-HA (from UniProt Q9VEN2 1-160) (domain or fragment)”, the binding entry is on record as “binds” in assay [2] and “no binding” in assay [1].

As for “CAL1(699-979)-HA (from UniProt Q9VEN2 699-979) (domain or fragment)”, the binding entry is on record as “binds” in assay [3], “no binding” in assay [1] and “binds” in assay [4].

In the case of dCENP-A-HA (from UniProt Q9V6Q2 1-225), in assay [3], the binding result was “binds weakly”.

B1: HA-tagged dCENP-C(1263-1411) (domain or fragment, UniProt Q9VHP9 1263-1411)
chain: LGPVVFSTPLRDEQEEASTKLMQWLRGVGDAPPSASMSDENASVSSANELIFCQVDGIDYAFYNTKEKAMLGYMRFKPYQKRSMKQAKVHPLKLLVQFGEFNVETLAVGEEKEVHSVLRVGDMIEIDRGTRYSIQNAIDKVSVLMCIRS
With B1, the binding result in assay [5] and in assay [6] was “binds” throughout.

B2: HA-tagged dCENP-C(1263-1411) L1357E L1406E (domain or fragment, UniProt Q9VHP9 1263-1411)
chain: B1 chain with L95E, L144E
As to B2, the binding entry in assay [5] was “no binding”.

B3: HA-tagged full length dCENP-C L1357E L1406E (protein, UniProt Q9VHP9 1-1411)
chain: T1 sequence with L1357E, L1406E
On to B3, for which the binding result in assay [5] and in assay [6] was “no binding” each time.

B4: HA-tagged dCENP-C(1009-1411) (domain or fragment, UniProt Q9VHP9 1009-1411)
chain: T2 sequence
Consider B4, for which the binding entry in assay [5] is given as “binds”.
